In article PMC7499972:
These are yes or no findings as the source states them, for the method shown. Binding seen in cells or lysates may run through a third protein. Binding calls can cover weak binding; strength is not graded here.

The chains behind the UniProt entries cited, without tags or fusion partners. Where a name states a change or a piece, a line headed by the entry shows the natural chain unless it says otherwise.
UniProt Q96KA5: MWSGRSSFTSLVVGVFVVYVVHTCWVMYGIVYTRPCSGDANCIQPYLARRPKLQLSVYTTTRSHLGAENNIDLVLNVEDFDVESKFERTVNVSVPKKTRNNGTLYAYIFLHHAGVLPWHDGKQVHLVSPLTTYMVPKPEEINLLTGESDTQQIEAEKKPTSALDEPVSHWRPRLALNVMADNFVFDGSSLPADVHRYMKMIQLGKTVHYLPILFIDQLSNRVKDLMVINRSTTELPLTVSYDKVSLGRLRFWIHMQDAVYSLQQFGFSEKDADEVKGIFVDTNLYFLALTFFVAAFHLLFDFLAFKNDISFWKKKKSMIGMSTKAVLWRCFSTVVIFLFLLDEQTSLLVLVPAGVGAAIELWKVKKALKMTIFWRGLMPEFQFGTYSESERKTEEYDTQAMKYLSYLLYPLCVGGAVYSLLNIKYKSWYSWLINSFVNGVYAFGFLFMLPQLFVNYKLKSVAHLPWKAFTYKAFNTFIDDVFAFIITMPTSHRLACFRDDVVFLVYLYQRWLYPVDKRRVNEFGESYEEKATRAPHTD
UniProt Q92731: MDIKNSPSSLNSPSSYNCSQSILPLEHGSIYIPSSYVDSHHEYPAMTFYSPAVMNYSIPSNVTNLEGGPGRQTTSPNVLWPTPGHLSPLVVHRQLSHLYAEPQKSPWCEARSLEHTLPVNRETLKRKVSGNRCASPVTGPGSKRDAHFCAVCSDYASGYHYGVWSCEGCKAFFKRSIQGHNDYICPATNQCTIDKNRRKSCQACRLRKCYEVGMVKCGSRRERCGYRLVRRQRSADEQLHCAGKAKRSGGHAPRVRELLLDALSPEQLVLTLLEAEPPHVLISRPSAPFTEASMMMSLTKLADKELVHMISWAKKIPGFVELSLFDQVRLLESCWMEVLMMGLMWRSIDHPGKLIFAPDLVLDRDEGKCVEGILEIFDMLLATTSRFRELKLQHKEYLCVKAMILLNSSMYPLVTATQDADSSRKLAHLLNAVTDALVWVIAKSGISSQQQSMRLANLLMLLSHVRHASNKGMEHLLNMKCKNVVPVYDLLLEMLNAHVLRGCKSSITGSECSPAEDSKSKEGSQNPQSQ

Target: recombinant GST-CLPTM1L, wild type (human) (UniProt Q96KA5)
Assay: pull-down; GST pull-down of recombinant GST-CLPTM1L (wt or mut) with His-ERβ; glutathione beads washed six times with lysis buffer; western blot

- binding: binds
Substance: recombinant His-ERβ (from UniProt Q92731 1-530)
